{
  "source": "patent US20100222262A1",
  "about": "“SUBSTITUTED 1, 3-CYCLOPENTADIONE ATTENUATED ENDOTHELIAL INFLAMMATION AND ENDOTHELIAL-MONOCYTE INTERACTIONS” (METAPROTEOMICS, LLC, priority 2008, published 2010)",
  "origin": "cited, not measured here",
  "system": "85 Kinases",
  "conditions": "Concn 1 uM",
  "data": [
    {"smiles": "CN[C@@H]1C[C@H]2O[C@@](C)([C@@H]1OC)n1c3ccccc3c3c4c(c5c6ccccc6n2c5c31)C(=O)NC4", "note": "[Staurosporine]", "values": [
      {"measurement": "hit rate (>50% Inhibition)", "value": 78}
    ]}
  ]
}
